The results in this text go back to patent US20200181263A1.

Sequences of proteins named here, by UniProt entry; tags and fusion partners are left off. A change or cut given only in a name is not applied to a line headed by its entry.
UniProt P09693: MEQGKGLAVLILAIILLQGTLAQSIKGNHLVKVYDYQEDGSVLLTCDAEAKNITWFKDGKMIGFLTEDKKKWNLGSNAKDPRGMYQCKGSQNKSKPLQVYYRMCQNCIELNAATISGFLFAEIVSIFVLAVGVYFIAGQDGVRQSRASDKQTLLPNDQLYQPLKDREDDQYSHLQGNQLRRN
UniProt P07766: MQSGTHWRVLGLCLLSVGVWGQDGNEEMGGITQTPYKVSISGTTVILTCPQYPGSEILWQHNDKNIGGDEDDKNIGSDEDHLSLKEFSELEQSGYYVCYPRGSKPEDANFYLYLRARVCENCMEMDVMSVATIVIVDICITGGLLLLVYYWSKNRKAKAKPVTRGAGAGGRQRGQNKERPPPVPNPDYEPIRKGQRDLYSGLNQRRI

These are yes or no findings as the source states them, for the method shown. Some binding calls cover weakened binding; strength is not graded here.

The assay has as its target human CD3 gamma-epsilon single-chain (human) (UniProt P09693+P07766). The assay can be described thus: SPR. (In general: In SPR one partner is held on a chip, and binding of the other changes the refractive index at the surface.)

B1: PRO736 (protein)
chain 1: DIQMTQSPSSLSASVGDRVTITCQASENIYSFLAWYQQKPGKAPKLLIYSASKLAAGVPSRFSGSGSGTDFTLTISSLQPEDFATYYCQQTNRYSNPDIYNVFGTGTKVTVLGGGGGSGGGGSGGGGSGGGGSEVQLVESGGGLVQPGGSLRLSCAASGIDFNSNYYMCWVRQAPGKGLEWIGCIYVGSHVNTYYANWAKGRFTISRDNSKNTVYLQMNSLRAEDTAVYYCATSGSSVLYFKFWGQGTLVTVSSGGGGSGGGGSDIQMTQSPSSLSASVGDRVTITCQSSQSVFSNNYLAWFQQKPGQSPKRLIYSASTLASGVPSRFSGSGSGTDFTLTISSLQPEDFATYYCLGSYACSSADCYVFGCGTKVTVLGGGGGSGGGGSGGGGSDIQMTQSPSSLSASVGDRVTITCQSSESVYSNNQLSWYQQKPGQPPKLLIYDASDLASGVPSRFSGSGSGTDFTLTISSLQPEDFATYYCAGGFSSSSDTAFGGGTKLTVLG
chain 2: DIQMTQSPSSLSASVGDRVTITCQASENIYSFLAWYQQKPGKAPKLLIYSASKLAAGVPSRFSGSGSGTDFTLTISSLQPEDFATYYCQQTNRYSNPDIYNVFGTGTKVTVLGGGGGSGGGGSGGGGSGGGGSEVQLVESGGGLVQPGGSLRLSCAASGIDFNSNYYMCWVRQAPGKGLEWIGCIYVGSHVNTYYANWAKGRFTISRDNSKNTVYLQMNSLRAEDTAVYYCATSGSSVLYFKFWGQGTLVTVSSGGGGSGGGGSEVQLVESGGGLVQPGGSLRLSCAASGFSLSSYDMSWVRQAPGKCLAWIGASYASGPTYYASWAKGRFTISRDNSKNTVYLQMNSLRAEDTATYFCARGGWTGTSHSNIWGQGTLVTVSSGGGGSGGGGSGGGGSEVQLVESGGGLVQPGGSLRLSCAASGFSLSSNAMGWVRQAPGKGLEYIGIISVGGFTYYASWAKGRFTISRDNSKNTVYLQMNSLRAEDTATYFCARDRHGGDSSGAFYLWGQGTLVTVSS
In the case of B1, the binding result is “binds”.

B2: PRO746 (MATCH) (protein)
chain 1: DIQMTQSPSSLSASVGDRVTITCQASENIYSFLAWYQQKPGKAPKLLIYSASKLAAGVPSRFSGSGSGTDFTLTISSLQPEDFATYYCQQTNRYSNPDIYNVFGTGTKVTVLGGGGGSGGGGSGGGGSGGGGSEVQLVESGGGLVQPGGSLRLSCAASGIDFNSNYYMCWVRQAPGKGLEWIGCIYVGSHVNTYYANWAKGRFTISRDNSKNTVYLQMNSLRAEDTAVYYCATSGSSVLYFKFWGQGTLVTVSSGGGGSGGGGSDIQMTQSPSSLSASVGDRVTITCQSSQSVFSNNYLAWFQQKPGQSPKRLIYSASTLASGVPSRFSGSGSGTDFTLTISSLQPEDFATYYCLGSYACSSADCYVFGCGTKVTVLGEPEPEPEPEPEPEPDIQMTQSPSSLSASVGDRVTITCQSSESVYSNNQLSWYQQKPGQPPKLLIYDASDLASGVPSRFSGSGSGTDFTLTISSLQPEDFATYYCAGGFSSSSDTAFGGGTKLTVLG
chain 2: DIQMTQSPSSLSASVGDRVTITCQASENIYSFLAWYQQKPGKAPKLLIYSASKLAAGVPSRFSGSGSGTDFTLTISSLQPEDFATYYCQQTNRYSNPDIYNVFGTGTKVTVLGGGGGSGGGGSGGGGSGGGGSEVQLVESGGGLVQPGGSLRLSCAASGIDFNSNYYMCWVRQAPGKGLEWIGCIYVGSHVNTYYANWAKGRFTISRDNSKNTVYLQMNSLRAEDTAVYYCATSGSSVLYFKFWGQGTLVTVSSGGGGSGGGGSEVQLVESGGGLVQPGGSLRLSCAASGFSLSSNAMGWVRQAPGKGLEYIGIISVGGFTYYASWAKGRFTISRDNSKNTVYLQMNSLRAEDTATYFCARDRHGGDSSGAFYLWGQGTLVTVSSKPKPKPKPKPKPKPEVQLVESGGGLVQPGGSLRLSCAASGFSLSSYDMSWVRQAPGKCLAWIGASYASGPTYYASWAKGRFTISRDNSKNTVYLQMNSLRAEDTATYFCARGGWTGTSHSNIWGQGTLVTVSS
As for B2, the binding result is reported as “binds”.

B3: PRO734 (protein)
chain 1: DIQMTQSPSSLSASVGDRVTITCQASENIYSFLAWYQQKPGKAPKLLIYSASKLAAGVPSRFSGSGSGTDFTLTISSLQPEDFATYYCQQTNRYSNPDIYNVFGTGTKVTVLGGGGGSGGGGSGGGGSGGGGSEVQLVESGGGLVQPGGSLRLSCAASGIDFNSNYYMCWVRQAPGKGLEWIGCIYVGSHVNTYYANWAKGRFTISRDNSKNTVYLQMNSLRAEDTAVYYCATSGSSVLYFKFWGQGTLVTVSSGGGGSGGGGSDIQMTQSPSSLSASVGDRVTITCQSSQSVFSNNYLAWFQQKPGQSPKRLIYSASTLASGVPSRFSGSGSGTDFTLTISSLQPEDFATYYCLGSYACSSADCYVFGCGTKVTVLGSGGGGSGGGGSDIQMTQSPSSLSASVGDRVTITCQSSESVYSNNQLSWYQQKPGQPPKLLIYDASDLASGVPSRFSGSGSGTDFTLTISSLQPEDFATYYCAGGFSSSSDTAFGGGTKLTVLG
chain 2: DIQMTQSPSSLSASVGDRVTITCQASENIYSFLAWYQQKPGKAPKLLIYSASKLAAGVPSRFSGSGSGTDFTLTISSLQPEDFATYYCQQTNRYSNPDIYNVFGTGTKVTVLGGGGGSGGGGSGGGGSGGGGSEVQLVESGGGLVQPGGSLRLSCAASGIDFNSNYYMCWVRQAPGKGLEWIGCIYVGSHVNTYYANWAKGRFTISRDNSKNTVYLQMNSLRAEDTAVYYCATSGSSVLYFKFWGQGTLVTVSSGGGGSGGGGSEVQLVESGGGLVQPGGSLRLSCAASGFSLSSNAMGWVRQAPGKGLEYIGIISVGGFTYYASWAKGRFTISRDNSKNTVYLQMNSLRAEDTATYFCARDRHGGDSSGAFYLWGQGTLVTVSSSGGGGSGGGGSEVQLVESGGGLVQPGGSLRLSCAASGFSLSSYDMSWVRQAPGKCLAWIGASYASGPTYYASWAKGRFTISRDNSKNTVYLQMNSLRAEDTATYFCARGGWTGTSHSNIWGQGTLVTVSS
B3: the binding result is recorded as “binds”.

B4: PRO733 (protein)
chain 1: DIQMTQSPSSLSASVGDRVTITCQASENIYSFLAWYQQKPGKAPKLLIYSASKLAAGVPSRFSGSGSGTDFTLTISSLQPEDFATYYCQQTNRYSNPDIYNVFGTGTKVTVLGGGGGSGGGGSGGGGSGGGGSEVQLVESGGGLVQPGGSLRLSCAASGIDFNSNYYMCWVRQAPGKGLEWIGCIYVGSHVNTYYANWAKGRFTISRDNSKNTVYLQMNSLRAEDTAVYYCATSGSSVLYFKFWGQGTLVTVSSGGGGSGGGGSDIQMTQSPSSLSASVGDRVTITCQSSESVYNNKRLSWYQQKPGKAPKLLIYTASSLASGVPSRFSGSGSGTDFTLTISSLQPEDFATYYCQGEFTCSNADCFTFGCGTKVTVLGSGGGGSGGGGSDIQMTQSPSSLSASVGDRVTITCQSSESVYSNNQLSWYQQKPGQPPKLLIYDASDLASGVPSRFSGSGSGTDFTLTISSLQPEDFATYYCAGGFSSSSDTAFGGGTKLTVLG
chain 2: DIQMTQSPSSLSASVGDRVTITCQASENIYSFLAWYQQKPGKAPKLLIYSASKLAAGVPSRFSGSGSGTDFTLTISSLQPEDFATYYCQQTNRYSNPDIYNVFGTGTKVTVLGGGGGSGGGGSGGGGSGGGGSEVQLVESGGGLVQPGGSLRLSCAASGIDFNSNYYMCWVRQAPGKGLEWIGCIYVGSHVNTYYANWAKGRFTISRDNSKNTVYLQMNSLRAEDTAVYYCATSGSSVLYFKFWGQGTLVTVSSGGGGSGGGGSEVQLVESGGGLVQPGGSLRLSCAASGFPLSSYAMIWVRQAPGKCLEWIGMILRAGNIYYASWVKGRFTISRDNSKNTVYLQMNSLRAEDTAVYYCARRHYNREGYPIGIGDLWGQGTLVTVSSSGGGGSGGGGSEVQLVESGGGLVQPGGSLRLSCAASGFSLSSNAMGWVRQAPGKGLEYIGIISVGGFTYYASWAKGRFTISRDNSKNTVYLQMNSLRAEDTATYFCARDRHGGDSSGAFYLWGQGTLVTVSS
On to B4, for which the binding result was “binds”.
